Results from patent US11421006B2, “T cell epitopes from Cockroach and methods of making and using same” (LA JOLLA INSTITUTE FOR ALLERGY AND IMMUNOLOGY, priority 2012, dated 2022).
Values joined by “and” are separate entries in the source; they are usually repeats but may differ in a detail not shown here. Equal values may be shown once.

System: Bla g-specific T cells (PBMC)
Assay: ELISPOT assays: IL-5, IFN-γ and IL-10 production by in vitro expanded PBMC of Cockroach-allergic donors
Format: cell-based, human
Details: individual peptide, one line per responding donor
Experimental: In vitro expansion of Bla g-specific T cells: PBMC were cultured in RPMI 1640 (V Scientific, Tarzana, Calif.) supplemented with 5% human serum (Cellgro, Herndon, Va.) at a density of 2×10^6 cells/ml in 24-well plates (BD Biosciences, San Jose, Calif.) and stimulated with 25 μg/ml German Cockroach (Blatella germanica; Bla g) extract (Greer, Lenoir, N.C.), or individual peptides. […] On day 14, cells were harvested and screened for reactivity against Bla g-specific peptide pools or individual peptides. ELISPOT assays: The production of IL-5, IFN-γ, and IL-10 was analyzed in ELISPOT assays. […] Cells were then incubated at a density of 1×10^5/well either with peptide pools or individual peptides (10 μg/ml), German Cockroach extract (25 μg/ml), PHA (10 μg/ml), or medium (containing 1% DMSO corresponding to the percentage of DMSO in the pools/peptides) as a control. […] Louis, Mo.). Spots were counted by computer-assisted image analysis (Zeiss, KS-ELISPOT reader, Munich, Germany). Each assay was performed in triplicate. The level of statistical significance was determined with a Student's t-test using the mean of triplicate values of the response against relevant pools or individual peptides versus the response against the DMSO control.

DLVANQPNLKALREK (listed as Blattella germanica)
IFNγ: 177 SFC and 80 SFC
IL-5: 0 SFC
